The values that follow come from patent US20090131308A1 (AGOS BIOTECH LTD., priority 2003, published 2009).

This series is described as follows: Fmoc solid-phase peptide synthesis; Tentagel-Lys(Boc)-Fmoc resin; N-methylpyrrolidone/hydroxybenzotriazole activated ester. Particulars: whole synthesis.

As to “GHARKCNETAKSYCVNGGVCYYIEGINQLSCK-OH (C-terminal free acid)”, the difficulty met entry is recorded as “Some minor deletion products were detected for hNRG2 (1-32)”.
With “NSDSECPLSHDGYCLHDGVCMYIEALDKYACK-OH (C-terminal free acid)”, the difficulty met result (several disulfide bridges, sequence written open) was “high aggregation potential of the peptide sequence which led to incomplete couplings and sequence termination”.
